± gives the standard deviation of the averaged measurements. The list shows a part of the results.
Compound: Nc1nc2c(ncn2[C@@H]2O[C@H](COP(=O)(O)OP(=O)(O)OP(=O)(O)O)[C@@H](O)[C@H]2O)c(=O)[nH]1 [guanosine triphosphate]
Assay: NP40-soluble protein abundance relative to vehicle (solubility fold change) (ratio); higher = more soluble protein in presence of GTP
Method in brief: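 Each value is a fold change relative to the detergent-processed vehicle, calculated per replicate from vsn-normalised intensities. Jurkat crude lysate received eight concentrations (0.1 to 10 mM) for 10 min at room temperature and 3 min at 37 °C, then was solubilised in 0.8% NP40 with benzonase (60 min, 4 °C). The ultracentrifuged supernatant was TMT-labelled and run by LC-MS/MS in three independent experiments.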

Sequences of proteins named here, by UniProt entry; tags and fusion partners are left off. A change or cut given only in a name is not applied to a line headed by its entry.
UniProt P40763, whole entry: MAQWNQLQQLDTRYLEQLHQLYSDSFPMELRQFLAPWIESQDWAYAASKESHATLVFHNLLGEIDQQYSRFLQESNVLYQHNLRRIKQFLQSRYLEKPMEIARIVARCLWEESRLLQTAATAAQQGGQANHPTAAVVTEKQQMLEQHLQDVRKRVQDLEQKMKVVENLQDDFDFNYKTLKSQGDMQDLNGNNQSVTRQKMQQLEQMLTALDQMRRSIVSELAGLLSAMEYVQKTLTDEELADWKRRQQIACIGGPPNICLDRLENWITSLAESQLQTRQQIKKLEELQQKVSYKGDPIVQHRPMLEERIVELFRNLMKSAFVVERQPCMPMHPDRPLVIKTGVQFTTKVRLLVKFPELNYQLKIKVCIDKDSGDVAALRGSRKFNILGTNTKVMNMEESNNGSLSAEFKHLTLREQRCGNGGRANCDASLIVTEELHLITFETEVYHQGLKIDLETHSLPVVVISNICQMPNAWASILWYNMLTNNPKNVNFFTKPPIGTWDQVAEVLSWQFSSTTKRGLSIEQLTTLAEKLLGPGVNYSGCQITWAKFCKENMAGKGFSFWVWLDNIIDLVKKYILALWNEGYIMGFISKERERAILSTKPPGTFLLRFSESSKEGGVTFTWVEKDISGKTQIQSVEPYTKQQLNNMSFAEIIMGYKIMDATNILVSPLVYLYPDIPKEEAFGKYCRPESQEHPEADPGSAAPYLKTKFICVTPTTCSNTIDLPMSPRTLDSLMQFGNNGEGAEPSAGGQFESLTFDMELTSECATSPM
UniProt Q8IWX8: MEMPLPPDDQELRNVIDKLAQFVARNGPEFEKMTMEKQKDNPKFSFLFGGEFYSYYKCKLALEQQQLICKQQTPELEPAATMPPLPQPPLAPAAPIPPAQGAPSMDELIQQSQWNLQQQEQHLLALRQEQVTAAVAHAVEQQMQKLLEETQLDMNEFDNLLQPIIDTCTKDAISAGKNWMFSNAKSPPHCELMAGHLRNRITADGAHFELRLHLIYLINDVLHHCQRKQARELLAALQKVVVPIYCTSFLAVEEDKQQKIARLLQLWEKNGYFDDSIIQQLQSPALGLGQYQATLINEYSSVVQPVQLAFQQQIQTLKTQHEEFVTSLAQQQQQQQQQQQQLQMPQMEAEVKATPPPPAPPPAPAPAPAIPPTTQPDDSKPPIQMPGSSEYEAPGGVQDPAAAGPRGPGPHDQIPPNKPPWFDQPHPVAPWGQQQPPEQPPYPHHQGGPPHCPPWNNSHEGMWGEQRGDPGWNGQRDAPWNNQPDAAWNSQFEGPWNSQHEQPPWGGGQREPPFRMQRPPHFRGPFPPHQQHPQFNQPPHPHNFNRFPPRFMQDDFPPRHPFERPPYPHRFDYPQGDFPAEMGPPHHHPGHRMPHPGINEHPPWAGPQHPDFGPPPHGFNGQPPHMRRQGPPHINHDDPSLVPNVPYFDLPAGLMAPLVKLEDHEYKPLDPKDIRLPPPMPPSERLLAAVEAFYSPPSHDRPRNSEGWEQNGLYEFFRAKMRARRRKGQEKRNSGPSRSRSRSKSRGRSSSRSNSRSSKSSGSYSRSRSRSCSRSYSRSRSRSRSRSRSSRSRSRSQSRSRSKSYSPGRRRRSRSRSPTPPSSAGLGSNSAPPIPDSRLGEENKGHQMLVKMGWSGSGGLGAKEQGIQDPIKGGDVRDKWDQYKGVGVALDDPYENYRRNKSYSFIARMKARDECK
UniProt Q6V1X1: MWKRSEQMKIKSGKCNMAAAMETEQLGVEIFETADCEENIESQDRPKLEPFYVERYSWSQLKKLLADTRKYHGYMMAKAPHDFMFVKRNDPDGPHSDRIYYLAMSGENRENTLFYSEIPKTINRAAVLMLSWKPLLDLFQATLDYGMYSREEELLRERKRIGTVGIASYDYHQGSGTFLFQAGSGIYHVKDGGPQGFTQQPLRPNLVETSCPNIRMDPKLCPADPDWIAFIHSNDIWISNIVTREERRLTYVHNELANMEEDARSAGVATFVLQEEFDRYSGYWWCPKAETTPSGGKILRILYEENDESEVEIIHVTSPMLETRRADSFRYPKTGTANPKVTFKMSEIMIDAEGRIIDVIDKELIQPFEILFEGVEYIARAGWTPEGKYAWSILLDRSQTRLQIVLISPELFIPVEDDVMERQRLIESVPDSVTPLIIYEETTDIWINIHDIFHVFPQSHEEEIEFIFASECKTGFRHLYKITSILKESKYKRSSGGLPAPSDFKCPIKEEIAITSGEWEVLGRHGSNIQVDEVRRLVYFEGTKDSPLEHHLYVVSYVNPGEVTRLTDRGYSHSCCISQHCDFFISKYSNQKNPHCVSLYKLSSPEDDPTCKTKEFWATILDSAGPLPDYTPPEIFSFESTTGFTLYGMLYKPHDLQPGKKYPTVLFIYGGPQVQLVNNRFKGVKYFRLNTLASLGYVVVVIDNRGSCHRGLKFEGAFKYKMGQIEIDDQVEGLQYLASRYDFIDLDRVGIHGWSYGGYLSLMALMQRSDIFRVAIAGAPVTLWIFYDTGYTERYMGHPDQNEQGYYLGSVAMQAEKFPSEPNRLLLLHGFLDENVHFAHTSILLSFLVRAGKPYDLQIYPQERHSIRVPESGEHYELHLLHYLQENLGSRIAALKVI
UniProt P21333, whole entry: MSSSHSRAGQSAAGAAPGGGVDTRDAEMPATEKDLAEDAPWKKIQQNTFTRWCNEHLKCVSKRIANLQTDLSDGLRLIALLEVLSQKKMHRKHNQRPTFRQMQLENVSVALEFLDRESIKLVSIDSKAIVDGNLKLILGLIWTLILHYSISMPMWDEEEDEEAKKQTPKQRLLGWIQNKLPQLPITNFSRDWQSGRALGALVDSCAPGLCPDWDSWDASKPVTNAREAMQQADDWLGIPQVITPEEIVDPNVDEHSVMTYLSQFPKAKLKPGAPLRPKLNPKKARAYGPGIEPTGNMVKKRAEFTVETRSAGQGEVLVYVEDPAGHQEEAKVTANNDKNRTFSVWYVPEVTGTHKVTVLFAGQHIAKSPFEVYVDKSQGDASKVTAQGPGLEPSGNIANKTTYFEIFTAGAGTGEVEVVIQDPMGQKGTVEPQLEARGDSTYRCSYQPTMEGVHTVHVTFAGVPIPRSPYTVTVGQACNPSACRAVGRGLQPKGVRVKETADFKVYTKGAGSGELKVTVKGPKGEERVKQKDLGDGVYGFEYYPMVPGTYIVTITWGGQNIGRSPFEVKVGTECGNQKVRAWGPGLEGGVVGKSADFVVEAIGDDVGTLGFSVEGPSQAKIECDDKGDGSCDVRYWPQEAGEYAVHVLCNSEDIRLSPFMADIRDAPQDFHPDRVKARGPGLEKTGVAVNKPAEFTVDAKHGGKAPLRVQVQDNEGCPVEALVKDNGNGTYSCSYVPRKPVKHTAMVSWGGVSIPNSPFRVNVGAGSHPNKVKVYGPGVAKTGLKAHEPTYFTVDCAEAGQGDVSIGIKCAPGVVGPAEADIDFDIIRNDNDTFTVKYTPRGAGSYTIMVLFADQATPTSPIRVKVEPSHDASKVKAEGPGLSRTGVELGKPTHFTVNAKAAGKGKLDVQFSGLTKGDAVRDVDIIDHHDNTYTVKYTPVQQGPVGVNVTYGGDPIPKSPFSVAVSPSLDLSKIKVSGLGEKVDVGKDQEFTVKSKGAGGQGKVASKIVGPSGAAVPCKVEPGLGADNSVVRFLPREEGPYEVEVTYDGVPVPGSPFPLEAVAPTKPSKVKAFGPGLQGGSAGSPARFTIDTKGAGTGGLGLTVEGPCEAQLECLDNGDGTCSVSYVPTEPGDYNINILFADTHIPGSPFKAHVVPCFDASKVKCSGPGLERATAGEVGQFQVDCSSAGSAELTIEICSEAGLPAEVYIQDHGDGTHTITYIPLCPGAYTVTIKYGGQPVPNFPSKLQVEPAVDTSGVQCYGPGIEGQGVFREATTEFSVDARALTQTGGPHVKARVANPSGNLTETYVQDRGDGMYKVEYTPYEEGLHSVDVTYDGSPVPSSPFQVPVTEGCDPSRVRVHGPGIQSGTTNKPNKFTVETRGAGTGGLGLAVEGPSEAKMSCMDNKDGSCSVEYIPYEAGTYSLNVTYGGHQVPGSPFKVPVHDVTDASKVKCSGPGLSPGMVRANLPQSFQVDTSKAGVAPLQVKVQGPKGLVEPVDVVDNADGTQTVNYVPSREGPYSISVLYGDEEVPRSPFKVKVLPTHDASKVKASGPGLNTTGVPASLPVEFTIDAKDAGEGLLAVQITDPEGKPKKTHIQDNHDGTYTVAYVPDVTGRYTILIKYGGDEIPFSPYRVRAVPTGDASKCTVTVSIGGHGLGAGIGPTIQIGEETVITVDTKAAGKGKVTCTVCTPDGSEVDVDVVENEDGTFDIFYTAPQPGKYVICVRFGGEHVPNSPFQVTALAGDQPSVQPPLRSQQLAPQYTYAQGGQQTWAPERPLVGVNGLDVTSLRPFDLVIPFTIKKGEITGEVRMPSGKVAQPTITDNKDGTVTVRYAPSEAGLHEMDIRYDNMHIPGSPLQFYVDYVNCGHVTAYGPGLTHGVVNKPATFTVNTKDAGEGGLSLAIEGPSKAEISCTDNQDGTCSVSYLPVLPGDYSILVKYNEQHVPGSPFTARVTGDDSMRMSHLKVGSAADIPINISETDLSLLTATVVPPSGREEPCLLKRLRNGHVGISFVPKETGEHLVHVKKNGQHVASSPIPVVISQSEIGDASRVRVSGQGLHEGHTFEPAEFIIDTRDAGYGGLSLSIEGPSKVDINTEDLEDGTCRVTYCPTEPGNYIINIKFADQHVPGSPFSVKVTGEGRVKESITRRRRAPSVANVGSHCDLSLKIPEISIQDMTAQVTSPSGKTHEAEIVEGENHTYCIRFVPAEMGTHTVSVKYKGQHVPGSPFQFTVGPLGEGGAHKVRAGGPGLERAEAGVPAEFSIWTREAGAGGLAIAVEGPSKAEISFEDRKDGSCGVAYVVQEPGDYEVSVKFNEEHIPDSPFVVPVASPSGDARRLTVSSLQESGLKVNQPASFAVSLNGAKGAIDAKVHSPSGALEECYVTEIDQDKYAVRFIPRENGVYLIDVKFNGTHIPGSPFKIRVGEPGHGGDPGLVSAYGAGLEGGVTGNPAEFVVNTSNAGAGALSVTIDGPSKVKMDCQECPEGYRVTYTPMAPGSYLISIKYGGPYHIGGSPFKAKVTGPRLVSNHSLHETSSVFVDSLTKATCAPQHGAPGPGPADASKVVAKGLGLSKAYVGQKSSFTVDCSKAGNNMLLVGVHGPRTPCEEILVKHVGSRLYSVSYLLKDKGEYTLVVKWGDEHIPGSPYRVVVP
UniProt O94952: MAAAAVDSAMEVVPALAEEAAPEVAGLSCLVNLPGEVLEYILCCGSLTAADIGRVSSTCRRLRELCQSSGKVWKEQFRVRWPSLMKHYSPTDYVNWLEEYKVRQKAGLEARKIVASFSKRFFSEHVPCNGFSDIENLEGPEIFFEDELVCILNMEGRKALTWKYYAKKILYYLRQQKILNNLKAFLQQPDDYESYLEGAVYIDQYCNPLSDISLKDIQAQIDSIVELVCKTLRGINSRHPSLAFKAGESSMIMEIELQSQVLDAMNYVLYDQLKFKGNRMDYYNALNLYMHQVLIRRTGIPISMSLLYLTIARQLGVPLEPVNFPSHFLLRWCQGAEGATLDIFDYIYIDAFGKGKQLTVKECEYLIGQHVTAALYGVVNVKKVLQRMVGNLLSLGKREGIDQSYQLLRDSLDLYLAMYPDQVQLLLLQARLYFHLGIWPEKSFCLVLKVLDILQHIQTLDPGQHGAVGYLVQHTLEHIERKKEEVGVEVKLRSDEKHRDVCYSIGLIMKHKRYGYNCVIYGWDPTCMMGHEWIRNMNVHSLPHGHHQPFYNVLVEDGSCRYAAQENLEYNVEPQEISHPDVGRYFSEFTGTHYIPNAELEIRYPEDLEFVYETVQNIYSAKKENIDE
UniProt Q14CW9: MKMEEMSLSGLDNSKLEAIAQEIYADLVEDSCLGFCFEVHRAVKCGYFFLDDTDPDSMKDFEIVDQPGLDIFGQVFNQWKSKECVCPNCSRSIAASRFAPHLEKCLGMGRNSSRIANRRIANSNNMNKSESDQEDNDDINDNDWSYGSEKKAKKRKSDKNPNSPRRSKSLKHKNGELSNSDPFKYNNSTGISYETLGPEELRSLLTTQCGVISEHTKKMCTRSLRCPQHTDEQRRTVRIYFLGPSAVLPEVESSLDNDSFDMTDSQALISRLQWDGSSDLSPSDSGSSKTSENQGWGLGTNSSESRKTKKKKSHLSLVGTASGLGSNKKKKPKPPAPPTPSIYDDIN
UniProt Q96EE3: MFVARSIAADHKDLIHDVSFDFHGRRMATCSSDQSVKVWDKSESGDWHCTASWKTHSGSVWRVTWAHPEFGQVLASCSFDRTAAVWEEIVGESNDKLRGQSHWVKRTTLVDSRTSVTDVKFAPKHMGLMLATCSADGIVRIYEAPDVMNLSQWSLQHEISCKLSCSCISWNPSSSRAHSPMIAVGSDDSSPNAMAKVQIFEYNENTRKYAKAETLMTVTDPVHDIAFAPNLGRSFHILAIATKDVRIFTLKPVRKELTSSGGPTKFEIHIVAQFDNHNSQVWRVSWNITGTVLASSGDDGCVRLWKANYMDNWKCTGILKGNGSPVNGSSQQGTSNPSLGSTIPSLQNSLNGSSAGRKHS

Row | Target | NP40-soluble protein abundance (concentration: 0.1mM) | NP40-soluble protein abundance (concentration: 0.5mM) | NP40-soluble protein abundance (concentration: 1mM) | NP40-soluble protein abundance (concentration: 2mM) | NP40-soluble protein abundance (concentration: 4mM) | NP40-soluble protein abundance (concentration: 6mM) | NP40-soluble protein abundance (concentration: 8mM) | NP40-soluble protein abundance (concentration: 10mM)
1 | G8JLH9 and related entries (UniProt P40763) | 1.02 ± 0.017 | 1.03 ± 0.047 | 0.965 ± 0.013 | 0.964 ± 0.02 | 0.953 ± 0.032 | 0.936 ± 0.024 | 0.94 ± 0.035 | 0.912 ± 0.068
2 | J3QK89 and related entries (UniProt Q8IWX8) | 1 ± 0.052 | 1.05 ± 0.023 | 1.14 ± 0.043 | 1.17 ± 0.095 | 1.26 ± 0.12 | 1.26 ± 0.12 | 1.34 ± 0.19 | 1.38 ± 0.21
3 | H0YJ21 and related entries (UniProt Q14204) | 1.1 ± 0.088 | 1.16 ± 0.15 | 1.07 ± 0.14 | 1.15 ± 0.22 | 1.17 ± 0.21 | 1.15 ± 0.23 | 1.1 ± 0.17 | 1.04 ± 0.17
4 | UniProt H3BQF6 | 1 ± 0.0047 | 0.993 ± 0.0027 | 1 ± 0.087 | 0.935 ± 0.045 | 0.943 ± 0.038 | 0.955 ± 0.057 | 0.958 ± 0.065 | 0.902 ± 0.085
5 | G5E9Z4 and related entries (UniProt Q8TCG2) | 0.987 ± 0.088 | 1.01 ± 0.052 | 0.958 ± 0.13 | 1.07 ± 0.089 | 1.11 ± 0.11 | 0.936 ± 0.097 | 1.13 ± 0.2 | 1.04 ± 0.25
6 | H7C5E4 and related entries (UniProt Q8IZH2) | 1.03 ± 0.034 | 1.07 ± 0.048 | 1.05 ± 0.039 | 1.07 ± 0.05 | 1.12 ± 0.067 | 1.1 ± 0.065 | 1.15 ± 0.14 | 1.13 ± 0.078
7 | J3KPT0 and related entries (UniProt Q6V1X1) | 1.01 ± 0.042 | 1.01 ± 0.056 | 0.946 ± 0.073 | 0.949 ± 0.024 | 0.986 ± 0.04 | 0.905 ± 0.054 | 0.89 ± 0.058 | 0.829 ± 0.028
8 | K7EIU8 and related entries (UniProt Q13485) | 0.968 ± 0.025 | 0.969 ± 0.019 | 0.904 ± 0.048 | 0.919 ± 0.053 | 0.879 ± 0.03 | 0.901 ± 0.012 | 0.866 ± 0.074 | 0.856 ± 0.065
9 | H0Y5C6 and related entries (UniProt P21333) | 0.969 ± 0.051 | 0.999 ± 0.037 | 0.979 ± 0.036 | 0.924 ± 0.035 | 0.918 ± 0.03 | 0.934 ± 0.03 | 0.96 ± 0.05 | 0.922 ± 0.046
10 | H3BRF9 and related entries (UniProt Q96K21) | 1.04 ± 0.036 | 0.991 ± 0.078 | 1 ± 0.1 | 0.93 ± 0.016 | 0.911 ± 0.067 | 0.965 ± 0.11 | 0.961 ± 0.1 | 0.986 ± 0.12
11 | H0YFA4 and related entries (UniProt P52943) | 0.889 ± 0.045 | 0.847 ± 0.018 | 0.955 ± 0.029 | 0.904 ± 0.028 | 0.952 ± 0.033 | 0.921 ± 0.047 | 0.955 ± 0.071 | 0.996 ± 0.017
12 | H0YKK6 and related entries (UniProt Q06323) | 0.871 ± 0.14 | 0.812 ± 0.062 | 1.04 ± 0.15 | 1.01 ± 0.079 | 0.996 ± 0.11 | 0.991 ± 0.08 | 0.926 ± 0.17 | 1.08 ± 0.2
13 | J3KNV1 and related entries (UniProt O60281) | 1.06 ± 0.041 | 1.05 ± 0.095 | 1.12 ± 0.066 | 1.09 ± 0.13 | 1.02 ± 0.051 | 1.04 ± 0.15 | 1.07 ± 0.057 | 1.05 ± 0.036
14 | J3KNQ1 and related entries (UniProt Q6P2D0) | 1.03 ± 0.077 | 0.991 ± 0.13 | 0.955 ± 0.022 | 1.01 ± 0.097 | 0.943 ± 0.057 | 0.943 ± 0.075 | 0.942 ± 0.082 | 1.03 ± 0.037
15 | H0YIE9 and related entries (UniProt O94952) | 1.19 ± 0.045 | 1.03 ± 0.091 | 1.05 ± 0.013 | 1.04 ± 0.12 | 1.12 ± 0.014 | 0.978 ± 0.078 | 1.08 ± 0.035 | 0.921 ± 0.089
16 | K7EKG9 and related entries (UniProt Q14CW9) | 1.1 ± 0.08 | 1.11 ± 0.11 | 1.24 ± 0.066 | 1.15 ± 0.032 | 1.17 ± 0.042 | 1.15 ± 0.087 | 1.22 ± 0.058 | 1.19 ± 0.12
17 | G5E9V5 and related entries (UniProt P82650) | 1.07 ± 0.069 | 1.13 ± 0.18 | 1.22 ± 0.22 | 1.26 ± 0.25 | 1.29 ± 0.28 | 1.24 ± 0.28 | 1.24 ± 0.31 | 1.13 ± 0.27
18 | H0Y6Y6 and related entries (UniProt P29017) | 0.943 ± 0.014 | 0.865 ± 0.045 | 0.934 ± 0.025 | 0.909 ± 0.035 | 0.91 ± 0.061 | 0.881 ± 0.062 | 0.888 ± 0.089 | 0.896 ± 0.032
19 | J3QL71 and related entries (UniProt Q96FV2) | 1.02 ± 0.032 | 1.01 ± 0.032 | 0.964 ± 0.037 | 0.939 ± 0.048 | 0.915 ± 0.062 | 0.912 ± 0.027 | 0.913 ± 0.052 | 0.869 ± 0.038
20 | K7ELV2 and related entries (UniProt Q96EE3) | 1.04 ± 0.062 | 1.08 ± 0.019 | 1.02 ± 0.036 | 1.05 ± 0.0084 | 1.03 ± 0.027 | 1.05 ± 0.045 | 1.14 ± 0.063 | 1.08 ± 0.022

A few values from above:
Under NP40-soluble protein abundance (concentration: 10mM), J3KNV1 and related entries (UniProt O60281) has 1.05 ± 0.036
Under NP40-soluble protein abundance (concentration: 0.5mM), J3KNQ1 and related entries (UniProt Q6P2D0) has 0.991 ± 0.13

From the supplement of paper PMC6411743
